The results in this text go back to publication PMC4654411.

Holding throughout (experiment): two-hybrid; GAL4-based: GAL4-BD fusions (pPC97) and GAL4-AD fusions (pPC86) in yeast PJ69-4A; growth on L−W−H− plates at 30 °C for 2–6 days; colorimetric β-galactosidase assay on liquid cultures
The target in assay [1] is GAL4-BD-FlnA-H743P (H743P-FlnA-1–8,24) (human).
Assay [2] has as its target GAL4-BD-FlnA-P637Q (P637Q-FlnA-1–8,24) (human).
In assay [3] the target is GAL4-BD-FlnA-G288R (G288R-FlnA-1–8,24) (human).
Assay [4] deals with GAL4-BD-FlnA-WT (WT-FlnA-1–8,24) (human).

Results are given in words; binding and its absence hold for the method and conditions named. For some of these results: A result given as binding can be weak or reduced; the word gives no strength. Where a sequence is shown, tags or fusion partners need not be part of it.

B1: GAL4-AD-PTPN12 (T587-N753 peptide region of PTPN12) (domain or fragment, UniProt Q05209 587-753)
chain: TSPLFRTPLSFTNPLHSDDSDSDERNSDGAVTQNKTNISTASATVSAATSTESISTRKVLPMSIARHNIAGTTHSGAEKDVDVSEDSPPPLPERTPESFVLASEHNTPVRSEWSELQSQERSEQKKSEGLITSENEKCDHPAGGIHYEMCIECPPTFSDKREQISEN
Consider B1, for which the binding entry was “no binding” in assay [1], “no binding” in assay [2], “no binding” in assay [3] and “binds” in assay [4].
